PubChem BioAssay AID1259405 – NCATS, 2018

- Purpose: 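Mouse-designed siRNAs used to find CHO productivity engineering targets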 (primary screen)
- Cell system: Chinese hamster CHO-K1 ovary cells with stable secreted eGFP expression
- Reagents: single siRNA against mouse genes, 0.8 pmol siRNA per well (2 µl of 400 nM stock)
- Time to read-out: 3 days
- Detection: 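Percent of the per-plate non-targeting control median for intracellular GFP per well by laser scanning cytometry and for cell viability by ATP luminescence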
- Reading the numbers: GFP, % of control: higher = more GFP per well, higher productivity; viability (ATP), % of control: higher = more viable cells (more ATP)
- Call rule: 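Called active when intracellular GFP, relative to negative control, is at or above 120%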
Shown is one part, drawn at random, of about 50,000 reagents tested. In the full data, about 4,000 (8%) got an active call. 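Mouse siRNA library applied to hamster cells; one well for each siRNA.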 Entries without a mark were called inactive. Reagents against one gene are numbered here.

no.	Target gene	reagent no.	GFP, % of control	viability (ATP), % of control
1	Ptges3 (prostaglandin E synthase 3)	1	70	79.8
2	Ptges3 (prostaglandin E synthase 3)	2	80.3	127
3	Ptges3 (prostaglandin E synthase 3)	3	108	128
4	Frem1 (Fras1 related extracellular matrix protein 1)	1	101	70.5
5	Frem1 (Fras1 related extracellular matrix protein 1)	2	59.7	88.2
6	Frem1 (Fras1 related extracellular matrix protein 1)	3	112	85.5
7	Or11g24 (olfactory receptor family 11 subfamily G member 24)	1	90.7	27
8	Or11g24 (olfactory receptor family 11 subfamily G member 24)	2	86.4	89.8
9	Or11g24 (olfactory receptor family 11 subfamily G member 24)	3	79.1	64.2
10	Maneal (mannosidase, endo-alpha-like)	1	60.3	48.1
11	Maneal (mannosidase, endo-alpha-like)	2	128 (active)	89.2
12	Maneal (mannosidase, endo-alpha-like)	3	29.2	54.7
13	Gpr107 (G protein-coupled receptor 107)	1	41.2	74.9
14	Gpr107 (G protein-coupled receptor 107)	2	60	95.5
15	Fam161a (family with sequence similarity 161, member A)	1	89.2	75.3
16	Fam161a (family with sequence similarity 161, member A)	2	84.6	100
17	Fam161a (family with sequence similarity 161, member A)	3	53.7	57.7
18	Copa (coatomer protein complex subunit alpha)	1	35.2	13.7
19	Copa (coatomer protein complex subunit alpha)	2	74.9	105
20	Copa (coatomer protein complex subunit alpha)	3	82.6	71.2
21	Fam24a (family with sequence similarity 24, member A)	1	8.25	73.8
22	Fam24a (family with sequence similarity 24, member A)	2	120 (active)	77.9
23	Fam24a (family with sequence similarity 24, member A)	3	59.3	74.3
24	Med18 (mediator complex subunit 18)	1	39.9	35.6
25	Med18 (mediator complex subunit 18)	2	74.5	88.4
26	Med18 (mediator complex subunit 18)	3	67.6	77.1
27	Gnrh1 (gonadotropin releasing hormone 1)	1	53.9	30.1
28	Gnrh1 (gonadotropin releasing hormone 1)	2	43.5	28.7
29	Gnrh1 (gonadotropin releasing hormone 1)	3	61.9	72.5
30	Pcdhb19 (protocadherin beta 19)	1	79.9	89.9
31	Pcdhb19 (protocadherin beta 19)	2	72.6	80.7

Records above called active:
Target gene	reagent no.	GFP, % of control	viability (ATP), % of control
Maneal (mannosidase, endo-alpha-like)	2	128 (active)	89.2
Fam24a (family with sequence similarity 24, member A)	2	120 (active)	77.9

Continued.
no.	Target gene	reagent no.	GFP, % of control	viability (ATP), % of control
32	Klk1b7-ps (kallikrein 1-related peptidase b7, pseudogene)	1	157 (active)	116
33	Klk1b7-ps (kallikrein 1-related peptidase b7, pseudogene)	2	56.9	37.2
34	Klk1b7-ps (kallikrein 1-related peptidase b7, pseudogene)	3	109	80.2
35	Il17f (interleukin 17F)	1	67.2	54.1
36	Il17f (interleukin 17F)	2	60	36.9
37	Il17f (interleukin 17F)	3	82.7	67.6
38	Atf3 (activating transcription factor 3)	1	53.9	73.9
39	Atf3 (activating transcription factor 3)	2	98.6	69.7
40	Atf3 (activating transcription factor 3)	3	84.7	88.1
41	Psme3ip1 (proteasome activator subunit 3 interacting protein 1)	1	49.3	52.6
42	Psme3ip1 (proteasome activator subunit 3 interacting protein 1)	2	120 (active)	89
43	Psme3ip1 (proteasome activator subunit 3 interacting protein 1)	3	79.3	65.1
44	Hikeshi (heat shock protein nuclear import factor)	1	122 (active)	110
45	Hikeshi (heat shock protein nuclear import factor)	2	95.6	65
46	Hikeshi (heat shock protein nuclear import factor)	3	132 (active)	80.4
47	Phf11d (PHD finger protein 11D)	1	109	70.5
48	Phf11d (PHD finger protein 11D)	2	59.9	79.4
49	Phf11d (PHD finger protein 11D)	3	43.8	75
50	Amz1 (archaelysin family metallopeptidase 1)	1	58.9	96
51	Amz1 (archaelysin family metallopeptidase 1)	2	81.2	93.4
52	Amz1 (archaelysin family metallopeptidase 1)	3	103	88.4
53	Zfp128 (zinc finger protein 128)	1	92.9	114
54	Zfp128 (zinc finger protein 128)	2	76.9	83.7
55	Zfp128 (zinc finger protein 128)	3	125 (active)	106
56	Obox1 (oocyte specific homeobox 1)	1	154 (active)	87.2
57	Obox1 (oocyte specific homeobox 1)	2	62.3	83.5
58	Obox1 (oocyte specific homeobox 1)	3	100	81.1
59	Sema4d	1	115	96.1
60	Sema4d	2	86.4	81.2
61	Sema4d	3	67.9	89.3
62	Ldaf1 (lipid droplet assembly factor 1)	1	96.3	65.1
63	Ldaf1 (lipid droplet assembly factor 1)	2	91.3	93.4
64	Ldaf1 (lipid droplet assembly factor 1)	3	138 (active)	136
65	Hapln2 (hyaluronan and proteoglycan link protein 2)	1	64.5	66
66	Hapln2 (hyaluronan and proteoglycan link protein 2)	2	93.8	74.8
67	Hapln2 (hyaluronan and proteoglycan link protein 2)	3	80	68.9
68	Abca5 (ATP-binding cassette, sub-family A member 5)	1	54.5	82.9
69	Abca5 (ATP-binding cassette, sub-family A member 5)	2	63.1	62.4
70	Abca5 (ATP-binding cassette, sub-family A member 5)	3	104	91.4
71	Slco4c1	1	94.1	66.5
72	Slco4c1	2	79.2	90
73	Slco4c1	3	140 (active)	101
74	Gpatch11 (G patch domain containing 11)	1	59.1	47.8
75	Gpatch11 (G patch domain containing 11)	2	98.2	76.9
76	Gpatch11 (G patch domain containing 11)	3	69.1	55.5
77	Zcchc14 (zinc finger, CCHC domain containing 14)	1	76.2	84
78	Zcchc14 (zinc finger, CCHC domain containing 14)	2	50.3	67.9
79	Zcchc14 (zinc finger, CCHC domain containing 14)	3	77.6	102
80	Ttc21a (tetratricopeptide repeat domain 21A)	1	87.9	99.4
81	Ttc21a (tetratricopeptide repeat domain 21A)	2	76	81.4
82	Ttc21a (tetratricopeptide repeat domain 21A)	3	98.5	101
83	Rasgrp1 (RAS guanyl releasing protein 1)	1	84.7	84.4
84	Rasgrp1 (RAS guanyl releasing protein 1)	2	78.9	61.4
85	Rasgrp1 (RAS guanyl releasing protein 1)	3	68.3	68.1
